# Data as given in the supplement of paper PMC12889115.
# The list shows a part of the results. These are raw signals, not scaled to a control.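 In the initial screen, polymyxin B was used at a concentration that permeabilizes Salmonella's outer membrane but not its inner membrane. Maximum growth was set by DMSO wells with or without polymyxin B. Since plates varied, data were ranked per plate, and compounds giving the lowest OD600 advanced as hits.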
# Test system: Salmonella enterica serovar Typhimurium SL1344
# Assay: bacterial growth OD600 after 18 h with compound and polymyxin B; higher = more bacterial growth (less inhibition)
# Conditions: 50 µM, Mueller-Hinton broth
SMILES,bacterial growth OD600 (polymyxin B 1 µg/mL),bacterial growth OD600 (polymyxin B 0.75 µg/mL)
O=C(NC1CC(=O)N(Cc2cccc(F)c2)C1)C1CCCC1 (stereo not given),0.859,–
Fc1ccc(F)c(CN2CCOc3ccc(CN4CCC(Oc5cccnc5)CC4)cc3C2)c1F,–,0.772
CC(C)NC1CC(C)(C)Cc2nc(C(C)(C)C)ncc21 (stereo not given),–,0.786
CC#CCN1C(=O)NC(CCCc2ccccc2)(C2CCN(C(=O)c3cc(C4CC4)n[nH]3)CC2)C1=O (stereo not given),–,0.201
Cn1ccnc1CNC(=O)c1ccccc1OC1CCN(C(=O)c2cccnc2)CC1,1.22,–
Fc1cccc(C2CCCCN2Cc2nc(-c3ccc4c(c3)OCO4)no2)c1 (stereo not given),0.732,–
CCN(CC1CCCN(CCc2cccc(OC)c2)C1)C(=O)c1ccc(C)s1 (stereo not given),0.852,–
CC(C)(C)CN1CCC(C2CCN(C(=O)c3ccnc(N)c3)CC2)C1 (stereo not given),–,0.968
CN1C(=O)c2ccc(C(=O)N3CCCC(Nc4ccc5c(c4)OCCO5)C3)cc2C1=O (stereo not given),–,0.785
CCN(CC)C(=O)C1CCCN(C(=O)c2oc3c(C)c(C)ccc3c2C)C1 (stereo not given),0.826,–
CN(Cc1n[nH]c2c1CCCC2)C(=O)CC1(c2cccc(F)c2)CC(=O)N(Cc2cccnc2)C1=O (stereo not given),–,0.759
CCn1cc(CNC(=O)c2cc(OC)ccc2OC2CCN(C(=O)C3CC3)CC2)cn1,0.763,–
CCN1CCC(NC2CCCc3nc(N(C)C)ncc32)CC1 (stereo not given),–,0.802
Cc1cccn2c(CN(C)Cc3cccnc3)c(C(=O)N(C)CCc3ccccc3)nc12,0.876,–
Cc1csc(C(C)NC(=O)c2cc(Cn3ccnc3C(C)C)[nH]n2)n1 (stereo not given),–,0.851
O=C(NC1CCOCC1)c1cc(Cn2cnc3ccccc32)on1,1.05,–
O=C(CCN1Cc2ccccc2OC(c2ccccc2F)C1)NCc1ccc2c(c1)OCO2 (stereo not given),–,0.527
CCN1CCN(C2(C(=O)NCCc3ccccc3)Cc3ccccc3C2)CC1,–,0.78
C=CCCC(=O)N1CCCC(CCc2cccc(F)c2)C1 (stereo not given),–,0.282
CN(CC1Cc2ccccc2O1)C(=O)CC1(c2ccc(-c3ccccc3)cc2)CC(=O)N(C)C1=O (stereo not given),–,0.716

# 2 entries from above in a different format.
SMILES	bacterial growth OD600 (polymyxin B 1 µg/mL)	bacterial growth OD600 (polymyxin B 0.75 µg/mL)
CCn1cc(CNC(=O)c2cc(OC)ccc2OC2CCN(C(=O)C3CC3)CC2)cn1	0.763	–
CCN1CCC(NC2CCCc3nc(N(C)C)ncc32)CC1 (stereo not given)	–	0.802
